Assay [1] concerns the target T1, PKGβ-FLAG (protein kinase cGMP-dependent 1, isoform β, FLAG-tagged) (UniProt Q13976).
T1 sequence: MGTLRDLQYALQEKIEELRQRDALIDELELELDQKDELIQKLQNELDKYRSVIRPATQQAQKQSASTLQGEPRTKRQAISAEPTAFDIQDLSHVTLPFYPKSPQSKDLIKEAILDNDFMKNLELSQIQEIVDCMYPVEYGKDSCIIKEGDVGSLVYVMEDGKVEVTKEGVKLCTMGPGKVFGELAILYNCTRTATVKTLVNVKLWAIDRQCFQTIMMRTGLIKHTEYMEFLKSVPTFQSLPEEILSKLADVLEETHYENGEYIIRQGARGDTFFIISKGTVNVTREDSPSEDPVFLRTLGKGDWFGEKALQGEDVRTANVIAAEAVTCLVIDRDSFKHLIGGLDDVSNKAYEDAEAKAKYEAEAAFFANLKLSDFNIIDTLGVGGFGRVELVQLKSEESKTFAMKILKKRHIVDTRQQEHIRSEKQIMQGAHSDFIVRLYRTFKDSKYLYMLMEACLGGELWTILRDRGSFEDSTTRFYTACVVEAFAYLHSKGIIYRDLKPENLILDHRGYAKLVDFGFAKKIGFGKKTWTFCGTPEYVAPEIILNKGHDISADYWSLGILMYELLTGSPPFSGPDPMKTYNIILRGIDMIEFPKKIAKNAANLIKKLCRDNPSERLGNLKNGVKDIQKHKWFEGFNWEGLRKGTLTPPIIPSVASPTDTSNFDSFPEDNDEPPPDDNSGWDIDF
The experiment in a line: co-IP; HEK293T cells co-transfected with HA- and FLAG-tagged constructs, lysates after 48 h, immunoprecipitation with EZview Red anti-FLAG M2 affinity gel, Western blot.

Assay [2] concerns the target T2, PKGα-FLAG (protein kinase cGMP-dependent 1, isoform α, FLAG-tagged) (UniProt Q13976).
T2 sequence: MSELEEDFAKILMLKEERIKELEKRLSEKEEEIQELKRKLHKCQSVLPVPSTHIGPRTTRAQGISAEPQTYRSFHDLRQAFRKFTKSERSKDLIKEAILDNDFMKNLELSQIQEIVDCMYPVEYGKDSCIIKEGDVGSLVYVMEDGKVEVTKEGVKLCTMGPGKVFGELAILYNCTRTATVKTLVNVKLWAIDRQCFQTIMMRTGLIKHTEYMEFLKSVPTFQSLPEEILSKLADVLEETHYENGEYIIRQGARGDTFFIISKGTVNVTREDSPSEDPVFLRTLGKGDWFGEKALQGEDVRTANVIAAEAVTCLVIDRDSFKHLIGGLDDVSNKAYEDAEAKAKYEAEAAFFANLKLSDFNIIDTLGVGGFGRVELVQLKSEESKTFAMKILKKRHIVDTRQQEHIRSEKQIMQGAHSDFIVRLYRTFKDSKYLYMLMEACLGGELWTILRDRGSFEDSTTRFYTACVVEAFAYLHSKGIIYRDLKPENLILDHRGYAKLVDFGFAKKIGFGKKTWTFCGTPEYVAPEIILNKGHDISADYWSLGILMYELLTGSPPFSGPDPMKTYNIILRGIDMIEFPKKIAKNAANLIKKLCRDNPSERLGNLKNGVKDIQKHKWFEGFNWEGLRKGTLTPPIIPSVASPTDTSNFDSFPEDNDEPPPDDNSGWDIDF
The assay is described as above.

For assay [3], the target named is T3, endogenous HSL (hormone-sensitive lipase) (human (endogenous in MGC803 and MKN1)) (UniProt Q05469).
T3 sequence: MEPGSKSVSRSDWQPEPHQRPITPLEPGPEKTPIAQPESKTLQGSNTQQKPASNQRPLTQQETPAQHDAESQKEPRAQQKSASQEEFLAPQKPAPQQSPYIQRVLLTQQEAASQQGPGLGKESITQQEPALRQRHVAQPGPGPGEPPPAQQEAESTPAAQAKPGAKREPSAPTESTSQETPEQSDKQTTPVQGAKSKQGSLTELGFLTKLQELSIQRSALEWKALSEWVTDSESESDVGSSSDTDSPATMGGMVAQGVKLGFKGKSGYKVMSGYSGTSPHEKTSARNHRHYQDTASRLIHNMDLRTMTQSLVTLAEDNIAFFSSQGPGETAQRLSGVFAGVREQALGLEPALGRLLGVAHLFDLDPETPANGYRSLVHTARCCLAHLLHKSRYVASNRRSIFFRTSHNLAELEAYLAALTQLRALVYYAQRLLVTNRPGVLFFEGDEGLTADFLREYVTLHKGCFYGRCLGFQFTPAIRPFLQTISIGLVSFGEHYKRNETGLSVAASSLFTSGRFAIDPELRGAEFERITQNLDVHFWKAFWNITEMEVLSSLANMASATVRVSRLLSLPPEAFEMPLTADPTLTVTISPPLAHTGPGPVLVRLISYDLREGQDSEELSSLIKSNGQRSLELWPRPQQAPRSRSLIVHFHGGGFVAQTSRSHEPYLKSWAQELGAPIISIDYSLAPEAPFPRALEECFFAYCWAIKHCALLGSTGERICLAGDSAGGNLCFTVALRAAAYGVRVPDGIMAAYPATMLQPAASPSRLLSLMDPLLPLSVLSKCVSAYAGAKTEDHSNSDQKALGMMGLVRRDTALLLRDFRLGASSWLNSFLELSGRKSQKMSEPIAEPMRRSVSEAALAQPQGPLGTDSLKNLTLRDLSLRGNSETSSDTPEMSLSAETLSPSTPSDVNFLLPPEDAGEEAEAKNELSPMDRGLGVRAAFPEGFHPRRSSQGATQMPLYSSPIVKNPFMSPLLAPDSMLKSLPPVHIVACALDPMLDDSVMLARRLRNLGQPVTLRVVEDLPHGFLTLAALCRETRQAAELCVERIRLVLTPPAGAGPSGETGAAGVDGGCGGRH
The assay can be described thus: co-IP; endogenous proteins; MKN1 and MGC803 cells treated with cGMP (100 µM) for 15 min before harvest; immunoprecipitation with target antibody.

The target of assay [4] is T4, HSL-FLAG (hormone-sensitive lipase, FLAG-tagged) (human) (UniProt Q05469).
T4 sequence: T3 sequence
The experiment in a line: co-IP; HEK293T cells co-transfected with HA- and FLAG-tagged constructs, lysates after 48 h, immunoprecipitation with EZview Red anti-FLAG M2 affinity gel, Western blot.

No constants are given. Whether binding was seen depends on the method and setting. In cells and extracts the contact can be indirect. Some results given as binding are weak or reduced against the parent protein; the word gives no strength. For some of these results: Sequences can lack the tags named with a protein.

B1: HSL-HA (hormone-sensitive lipase, HA-tagged) (enzyme, UniProt Q05469 1-1076)
chain: T3 sequence
Take B1: the binding entry in assay [1] and in assay [2] was “binds” in each case.

B2: endogenous PKGα (enzyme, UniProt Q13976 1-671)
chain: T2 sequence
In the case of B2, in assay [3], the binding entry was “binds”.

B3: PKGβ-HA (protein kinase cGMP-dependent 1, isoform β, HA-tagged) (enzyme, UniProt Q13976-2 1-686)
chain: T1 sequence
For the molecule B3, the binding result in assay [4] was “binds”.

Values taken from article PMC12499470.
